From paper doi:10.1101/2022.03.24.485587
Results are given in words; binding and its absence hold for the method and conditions named. In cells and extracts the contact can be indirect. These calls come from enrichment with a bait or labelling near it, and not all partners need be listed. For some assays here: No binding means not detected with the bait.

By UniProt entry, the sequences of proteins in these tests, tags left out. Where a name states a change or a piece, a line headed by the entry shows the natural chain unless it says otherwise. Residues count along the entry.
UniProt Q9BY78, whole entry: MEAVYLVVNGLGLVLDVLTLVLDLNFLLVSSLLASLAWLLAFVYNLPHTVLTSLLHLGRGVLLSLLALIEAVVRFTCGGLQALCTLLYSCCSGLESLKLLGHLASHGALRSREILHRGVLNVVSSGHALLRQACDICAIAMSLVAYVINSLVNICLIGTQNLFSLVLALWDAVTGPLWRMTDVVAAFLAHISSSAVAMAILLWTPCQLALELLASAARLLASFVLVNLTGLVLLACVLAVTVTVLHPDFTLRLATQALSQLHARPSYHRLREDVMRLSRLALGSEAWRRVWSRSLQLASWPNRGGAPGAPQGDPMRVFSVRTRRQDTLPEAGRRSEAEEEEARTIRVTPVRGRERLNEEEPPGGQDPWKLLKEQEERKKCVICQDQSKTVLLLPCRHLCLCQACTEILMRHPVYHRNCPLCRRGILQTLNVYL
UniProt Q9BY78, 1-422, stated change not applied: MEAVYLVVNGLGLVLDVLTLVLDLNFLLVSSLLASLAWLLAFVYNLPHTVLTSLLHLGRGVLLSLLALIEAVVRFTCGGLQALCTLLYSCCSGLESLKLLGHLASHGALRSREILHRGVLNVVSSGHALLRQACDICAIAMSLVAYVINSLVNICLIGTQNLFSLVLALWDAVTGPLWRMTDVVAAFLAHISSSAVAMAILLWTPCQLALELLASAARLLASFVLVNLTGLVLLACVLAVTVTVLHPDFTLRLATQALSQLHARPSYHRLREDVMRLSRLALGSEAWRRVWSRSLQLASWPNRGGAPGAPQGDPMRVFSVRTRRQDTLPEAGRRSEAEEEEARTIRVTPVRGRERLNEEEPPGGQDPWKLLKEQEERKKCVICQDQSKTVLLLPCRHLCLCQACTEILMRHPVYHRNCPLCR

What was measured:
Assay in all cases: proximity labelling
[1] = target: 2HA-TurboID-RNF26 I382R (UniProt Q9BY78)
[2] = target: 2HA-TurboID-RNF26 WT/Δ423-432 (UniProt Q9BY78)
[3] = target: 2HA-TurboID-RNF26 Y432A (UniProt Q9BY78)
[4] = target: 2HA-TurboID-RNF26 wild-type (UniProt Q9BY78)
[5] = target: 2HA-TurboID-RNF26 IR/Δ423-432 (UniProt Q9BY78)

binding [1]: binds
binding [2]: no binding
binding [3]: binds
binding [4]: binds
binding [5]: no binding
Substance: Vimentin (from UniProt P08670 1-466)
